Among all 320,000 compounds or so, about 2,100 (0.66%) were called active. The call rests on the fitted dose curve; in most records, active means well fitted inhibition curve with a large enough effect in the signal ratio, with a control signal flat (not every such curve was filed as active); inconclusive means small, poorly fitted or top-dose-only effect, or effect the other way, or a change in a side signal; inactive means flat fitted curve, though single readings scatter; the % refers to the signal ratio. Inconclusive results, whose numbers are uncertain, are shown. Where the call is inconclusive, the potency comes from a doubtful curve fit.
test: qHTS Assay for Lipid Storage Modulators in Drosophila S3 Cells; details: BODIPY lipid droplet fluorescence, 18-24 h, cells fed with added oleic acid; lipid storage change, negative = inhibition: at 46.1 µM (top of the series) unless noted
Procedure, shortened: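 Drosophila S3 cells got compounds at several concentrations plus oleic acid (400 uM solution). Laser-scanning cytometry with 488 nm excitation read lipid droplets at 500-530 nm and cells at 575-640 nm. Percent activity was relative to 20 uM Triacsin C.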
On the % scale 0 is the no-effect control and ±100 the full control effect; potency means the concentration at half of the fitted maximal effect.

Potency, inconclusive:
CCc1ccc(C(=O)Nc2cc(C)on2)o1 0.231 µM [activator, full curve, poor fit]
CNC1=CC(=O)CC(c2ccccc2)C1 (stereo not drawn) 0.0046 µM [falling, full curve, poor fit]
Cc1ccc(OCCn2c(NC(=O)c3ccco3)nc3ccccc32)cc1 2.91 µM [activator, partial curve]
COC(=O)c1ccc(Nc2ccc3nonc3c2[N+](=O)[O-])cc1 16.4 µM [activator, single point]
CCOC(=O)c1c(C)n(C)c2ccc(OCC(O)CN(CC)CC)cc12 (stereo not drawn) 4.11 µM [activator, single point]
Cc1cccc(CSC2=NCCN2S(=O)(=O)c2ccc(F)cc2)c1 29.1 µM [falling, single point]
CC1C(C#N)=C(SCC(N)=O)NC2=C1C(=O)CC(C)(C)C2 (stereo not drawn) 6.51 µM [falling, partial curve]
COc1ccc(C2(C(=O)NC3CCCCC3)CCOCC2)cc1OC 0.411 µM [falling, partial curve, poor fit]
COc1ccc(N2CCN(C(=O)CN(C)S(=O)(=O)c3cccs3)CC2)cc1 6.51 µM [falling, single point]
CCOC(=O)c1c(C)[nH]c(C(=O)CN2C(=O)C(=O)N(CC(C)C)C2=O)c1C 0.13 µM [activator, full curve, poor fit]
Cc1cc(N2CCN(C)CC2)nc2ccc(NC(=O)c3ccc4c(c3)OCO4)cc12 14.6 µM [activator, partial curve]
COc1cccc(C(=O)OCC(=O)c2[nH]c(C)c(C(C)=O)c2C)c1 0.103 µM [falling, full curve, poor fit]
O=C(COC(=O)c1cc2ccccc2oc1=O)Nc1cccc(Br)c1 18.4 µM [activator, single point]
O=C(O)c1ccc2[nH]c3c(c2c1)CCCC3 29.1 µM [rising, single point]
COc1ccccc1N1C(=O)CC(Sc2nccc(C)n2)C1=O (stereo not drawn) 20.6 µM [falling, single point]

Lipid storage change, negative = inhibition, inconclusive:
Cc1nc(-c2cccc(S(=O)(=O)N3CCC(C)CC3)c2)cs1 -47.3%
COc1ccc(S(=O)(=O)Nc2cccc(-n3cnnn3)c2)cc1OC 34.3%
Cc1ccnc2nc(C(=O)N3CCN(c4ccc(F)cc4)CC3)nn12 12.3%
CCN(C(=O)COC(=O)CCC1CCCC1)c1c(N)n(Cc2ccccc2)c(=O)[nH]c1=O -0.748%
C/C(=N\N=C1\NC(=O)CC(C(=O)O)S1)c1cccs1 (stereo not drawn) -32.5%
CCOC(=O)c1ccc(S(=O)(=O)N2CCC(C(=O)Nc3nnc(C)o3)CC2)cc1
COc1ccc(NC(=O)COC(=O)c2cc(C)oc2C)cc1OC 18%
COc1ccc(CN=C2NN=C(c3cccc(OC)c3)CS2)cc1 2.83%
CC(NC(=O)c1cccc(S(=O)(=O)N2CCN(Cc3ccccc3)CC2)c1)c1ccc(Cl)cc1 (stereo not drawn)
COc1ccc(C(=O)OCC[N+]2(C)CCCCC2)cc1 3.23%
O=C(C[C@H]1C(=O)N(c2ccc(F)c(F)c2)C[C@@H]1Cc1ccccc1)Nc1ccccc1 -45.9%
CCn1c(SCC(=O)Nc2ccccc2C(=O)OC)nnc1-c1ccoc1C 19.8%
Cc1cccn2c(CNC3CCCc4ccccc43)c(C(=O)N3CCOCC3)nc12 (stereo not drawn) 1.55%
C1CCC(n2nnnc2CN2CCCC2)CC1 36.8%
COc1ccc(C(=O)CN2C(=O)NC3(CCc4ccccc43)C2=O)cc1 (stereo not drawn) 5.42%
CCOCCCNC(=O)CN1C(=O)/C(=C/c2ccccc2)Sc2ccccc21 -19%
Cc1ccc(NC(=O)C(=O)NCCCN2CC(C(=O)O)CC2=O)cc1 (stereo not drawn) -34.8%
Cc1ccc(Cl)c(NC(=O)CCl)c1Cl -49.4%
COC(=O)CN1C2=NCCCN2c2ccccc21 8.42%
c1ccc2c(NCC3CCCO3)nc(-c3ccncc3)nc2c1 (stereo not drawn) 38.9%
Cc1ccc(C(=O)CSc2cnc3ccccc3n2)cc1C -23.2%
Nc1ccc2c(c1)C(=O)Cc1ccccc1S2 21.5%
CN1CCN(CCc2nc3cc(NC(=O)COc4ccccc4)ccc3n2C)CC1 19.2%

An excerpt from above in order of length of the SMILES, rising.
Lipid storage change, negative = inhibition, inconclusive:
Cc1ccc(Cl)c(NC(=O)CCl)c1Cl -49.4%
COC(=O)CN1C2=NCCCN2c2ccccc21 8.42%
COc1ccc(C(=O)OCC[N+]2(C)CCCCC2)cc1 3.23%
COc1ccc(NC(=O)COC(=O)c2cc(C)oc2C)cc1OC 18%
Cc1nc(-c2cccc(S(=O)(=O)N3CCC(C)CC3)c2)cs1 -47.3%
Cc1ccnc2nc(C(=O)N3CCN(c4ccc(F)cc4)CC3)nn12 12.3%
Cc1ccc(NC(=O)C(=O)NCCCN2CC(C(=O)O)CC2=O)cc1 (stereo not drawn) -34.8%
CCOCCCNC(=O)CN1C(=O)/C(=C/c2ccccc2)Sc2ccccc21 -19%
Cc1cccn2c(CNC3CCCc4ccccc43)c(C(=O)N3CCOCC3)nc12 (stereo not drawn) 1.55%
CCOC(=O)c1ccc(S(=O)(=O)N2CCC(C(=O)Nc3nnc(C)o3)CC2)cc1
CC(NC(=O)c1cccc(S(=O)(=O)N2CCN(Cc3ccccc3)CC2)c1)c1ccc(Cl)cc1 (stereo not drawn)

Two entries picked at random from those above, as already listed:
Lipid storage change, negative = inhibition, inconclusive:
Cc1cccn2c(CNC3CCCc4ccccc43)c(C(=O)N3CCOCC3)nc12 (stereo not drawn) 1.55%
Cc1nc(-c2cccc(S(=O)(=O)N3CCC(C)CC3)c2)cs1 -47.3%
